± gives the standard deviation of the averaged measurements. Some of the results follow.
Target: T1, LMAN2 (UniProt Q12907)
T1 sequence (whole entry): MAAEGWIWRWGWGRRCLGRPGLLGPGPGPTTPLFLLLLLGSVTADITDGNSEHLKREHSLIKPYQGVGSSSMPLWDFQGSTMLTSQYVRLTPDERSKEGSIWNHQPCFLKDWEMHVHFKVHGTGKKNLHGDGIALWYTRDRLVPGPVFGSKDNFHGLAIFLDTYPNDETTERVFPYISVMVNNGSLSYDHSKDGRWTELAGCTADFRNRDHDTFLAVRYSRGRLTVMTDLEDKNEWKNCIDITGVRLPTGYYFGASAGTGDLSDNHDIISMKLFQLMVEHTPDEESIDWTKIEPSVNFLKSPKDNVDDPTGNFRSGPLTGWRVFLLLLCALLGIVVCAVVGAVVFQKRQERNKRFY
Assay: NP40-soluble protein abundance relative to vehicle (solubility fold change) (ratio); higher = more soluble protein in presence of GTP
Protocol: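 Solubility proteome profiling in Jurkat crude lysate. Lysate was treated with Mg-GTP (0.1-10 mM) for 10 min at room temperature and 3 min at 37 °C, then solubilised with 0.8% NP40 and benzonase, followed by ultracentrifugation. Proteins were quantified by TMT10 LC-MS/MS; the value is the NP40-soluble abundance relative to the NP40-processed vehicle, from 3 independent experiments.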

Nc1nc2c(ncn2[C@@H]2O[C@H](COP(=O)(O)OP(=O)(O)OP(=O)(O)O)[C@@H](O)[C@H]2O)c(=O)[nH]1 [guanosine triphosphate]
NP40-soluble protein abundance (concentration: 0.1mM): 0.978 ± 0.075
NP40-soluble protein abundance (concentration: 0.5mM): 0.969 ± 0.067
NP40-soluble protein abundance (concentration: 1mM): 0.895 ± 0.081
NP40-soluble protein abundance (concentration: 2mM): 0.891 ± 0.07
NP40-soluble protein abundance (concentration: 4mM): 0.891 ± 0.089
NP40-soluble protein abundance (concentration: 6mM): 0.855 ± 0.049
NP40-soluble protein abundance (concentration: 8mM): 0.858 ± 0.095
NP40-soluble protein abundance (concentration: 10mM): 0.85 ± 0.083
